Reference: PMC13430412
Results are given in words; binding and its absence hold for the method and conditions named. Binding seen in cells or lysates may run through a third protein. Some results given as binding are weak or reduced against the parent protein; the word gives no strength. Sequences can lack the tags named with a protein.

Chains of the proteins cited; added tags and fusions are not shown.
UniProt Q709C8: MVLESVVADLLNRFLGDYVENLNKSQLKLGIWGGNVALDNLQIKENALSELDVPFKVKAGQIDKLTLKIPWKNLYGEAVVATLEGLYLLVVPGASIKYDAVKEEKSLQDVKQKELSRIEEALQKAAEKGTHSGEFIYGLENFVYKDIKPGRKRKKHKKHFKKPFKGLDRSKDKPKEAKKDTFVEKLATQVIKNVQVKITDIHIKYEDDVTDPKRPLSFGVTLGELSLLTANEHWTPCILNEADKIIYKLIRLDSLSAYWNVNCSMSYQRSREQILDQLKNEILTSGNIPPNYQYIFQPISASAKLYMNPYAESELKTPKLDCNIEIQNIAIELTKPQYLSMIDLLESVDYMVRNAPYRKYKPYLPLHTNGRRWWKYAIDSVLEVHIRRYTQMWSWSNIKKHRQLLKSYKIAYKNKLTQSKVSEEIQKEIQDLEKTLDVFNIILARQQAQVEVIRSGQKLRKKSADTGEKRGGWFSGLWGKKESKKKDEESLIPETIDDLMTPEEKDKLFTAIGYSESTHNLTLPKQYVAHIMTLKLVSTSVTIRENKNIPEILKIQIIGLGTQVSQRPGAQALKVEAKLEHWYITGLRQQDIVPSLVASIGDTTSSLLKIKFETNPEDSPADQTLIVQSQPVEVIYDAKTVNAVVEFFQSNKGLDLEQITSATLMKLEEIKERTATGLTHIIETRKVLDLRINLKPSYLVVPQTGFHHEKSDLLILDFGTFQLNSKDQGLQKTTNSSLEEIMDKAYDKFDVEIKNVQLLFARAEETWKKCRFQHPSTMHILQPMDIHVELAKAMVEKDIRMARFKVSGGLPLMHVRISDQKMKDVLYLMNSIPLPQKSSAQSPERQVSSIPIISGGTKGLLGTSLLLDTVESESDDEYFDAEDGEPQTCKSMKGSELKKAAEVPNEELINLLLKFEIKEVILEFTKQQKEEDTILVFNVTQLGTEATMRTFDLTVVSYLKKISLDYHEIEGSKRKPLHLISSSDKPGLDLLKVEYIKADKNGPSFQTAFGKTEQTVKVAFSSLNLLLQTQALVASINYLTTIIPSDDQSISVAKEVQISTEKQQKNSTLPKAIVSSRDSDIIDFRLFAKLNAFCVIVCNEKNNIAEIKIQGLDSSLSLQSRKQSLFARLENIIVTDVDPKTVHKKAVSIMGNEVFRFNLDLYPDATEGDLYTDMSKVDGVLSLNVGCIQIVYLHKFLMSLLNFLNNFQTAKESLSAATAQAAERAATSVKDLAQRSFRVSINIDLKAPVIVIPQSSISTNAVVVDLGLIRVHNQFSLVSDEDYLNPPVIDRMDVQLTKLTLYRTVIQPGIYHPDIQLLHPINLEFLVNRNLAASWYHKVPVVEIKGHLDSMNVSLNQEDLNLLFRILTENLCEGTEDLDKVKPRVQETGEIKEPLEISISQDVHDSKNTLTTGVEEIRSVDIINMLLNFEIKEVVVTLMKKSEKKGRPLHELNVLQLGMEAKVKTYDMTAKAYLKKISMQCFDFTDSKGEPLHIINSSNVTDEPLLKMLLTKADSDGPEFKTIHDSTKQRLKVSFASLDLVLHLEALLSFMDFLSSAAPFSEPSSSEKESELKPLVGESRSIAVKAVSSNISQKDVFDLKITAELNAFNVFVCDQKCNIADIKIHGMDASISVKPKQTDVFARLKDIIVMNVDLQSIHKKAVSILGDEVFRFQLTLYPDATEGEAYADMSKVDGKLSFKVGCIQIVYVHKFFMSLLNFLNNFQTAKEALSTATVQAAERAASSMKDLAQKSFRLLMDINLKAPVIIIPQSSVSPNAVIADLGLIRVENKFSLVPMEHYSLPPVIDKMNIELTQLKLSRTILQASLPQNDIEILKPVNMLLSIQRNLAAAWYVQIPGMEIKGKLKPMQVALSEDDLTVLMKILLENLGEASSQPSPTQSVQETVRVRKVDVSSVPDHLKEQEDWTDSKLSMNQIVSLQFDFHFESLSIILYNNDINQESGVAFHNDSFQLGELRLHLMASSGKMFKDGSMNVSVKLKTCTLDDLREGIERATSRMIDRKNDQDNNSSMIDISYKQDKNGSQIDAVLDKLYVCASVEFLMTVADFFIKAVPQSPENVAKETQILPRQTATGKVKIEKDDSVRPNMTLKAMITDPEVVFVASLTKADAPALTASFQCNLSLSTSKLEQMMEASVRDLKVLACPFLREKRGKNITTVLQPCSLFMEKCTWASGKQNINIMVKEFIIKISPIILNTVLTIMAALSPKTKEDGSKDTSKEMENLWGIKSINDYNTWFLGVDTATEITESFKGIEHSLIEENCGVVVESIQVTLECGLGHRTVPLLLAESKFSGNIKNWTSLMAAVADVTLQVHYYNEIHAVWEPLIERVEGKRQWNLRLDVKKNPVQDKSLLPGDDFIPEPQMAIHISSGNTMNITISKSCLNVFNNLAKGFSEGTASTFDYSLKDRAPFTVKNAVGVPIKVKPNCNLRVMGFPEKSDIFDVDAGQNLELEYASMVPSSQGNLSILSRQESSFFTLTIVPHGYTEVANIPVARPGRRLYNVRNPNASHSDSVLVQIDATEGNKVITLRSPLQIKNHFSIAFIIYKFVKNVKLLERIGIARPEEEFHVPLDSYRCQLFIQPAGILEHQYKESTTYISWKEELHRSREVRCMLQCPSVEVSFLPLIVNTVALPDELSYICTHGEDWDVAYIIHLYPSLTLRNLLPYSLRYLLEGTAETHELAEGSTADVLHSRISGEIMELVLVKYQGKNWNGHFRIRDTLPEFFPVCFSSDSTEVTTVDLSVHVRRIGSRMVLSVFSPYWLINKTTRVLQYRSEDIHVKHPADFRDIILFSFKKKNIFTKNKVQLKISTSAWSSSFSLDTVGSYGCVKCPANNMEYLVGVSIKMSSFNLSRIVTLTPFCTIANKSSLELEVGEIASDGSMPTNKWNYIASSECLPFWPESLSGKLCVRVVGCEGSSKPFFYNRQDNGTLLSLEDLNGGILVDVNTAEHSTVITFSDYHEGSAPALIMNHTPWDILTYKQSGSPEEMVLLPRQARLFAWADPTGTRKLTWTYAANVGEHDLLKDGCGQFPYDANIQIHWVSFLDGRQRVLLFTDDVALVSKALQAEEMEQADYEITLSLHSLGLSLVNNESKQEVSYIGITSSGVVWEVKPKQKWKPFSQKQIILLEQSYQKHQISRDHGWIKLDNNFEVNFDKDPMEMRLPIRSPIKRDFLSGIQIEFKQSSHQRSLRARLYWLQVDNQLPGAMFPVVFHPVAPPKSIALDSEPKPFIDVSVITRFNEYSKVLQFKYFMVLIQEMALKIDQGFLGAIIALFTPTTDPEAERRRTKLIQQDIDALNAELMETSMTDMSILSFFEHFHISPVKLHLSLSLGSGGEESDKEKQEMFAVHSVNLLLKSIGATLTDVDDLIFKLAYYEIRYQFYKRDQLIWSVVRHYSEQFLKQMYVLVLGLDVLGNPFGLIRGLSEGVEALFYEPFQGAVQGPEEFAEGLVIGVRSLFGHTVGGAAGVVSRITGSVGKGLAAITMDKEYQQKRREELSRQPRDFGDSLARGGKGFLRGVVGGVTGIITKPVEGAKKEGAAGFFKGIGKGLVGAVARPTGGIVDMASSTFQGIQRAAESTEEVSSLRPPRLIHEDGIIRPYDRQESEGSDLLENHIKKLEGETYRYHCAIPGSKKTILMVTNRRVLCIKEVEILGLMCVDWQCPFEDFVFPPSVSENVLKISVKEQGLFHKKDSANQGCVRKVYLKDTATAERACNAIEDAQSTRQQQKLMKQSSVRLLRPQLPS

Biological target: T1, FLAG-VAPA (UniProt Q9P0L0)
T1 sequence: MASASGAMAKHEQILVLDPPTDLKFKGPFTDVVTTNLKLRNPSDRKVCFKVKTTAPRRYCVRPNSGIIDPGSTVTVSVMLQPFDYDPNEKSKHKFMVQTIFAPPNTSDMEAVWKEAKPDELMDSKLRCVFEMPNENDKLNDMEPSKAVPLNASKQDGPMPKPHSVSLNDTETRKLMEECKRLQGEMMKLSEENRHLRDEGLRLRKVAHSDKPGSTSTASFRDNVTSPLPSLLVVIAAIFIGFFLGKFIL
Test: co-IP; HEK293T cells transfected with FLAG-VAPA, treated 1 min with 1 μM thapsigargin or DMSO; anti-FLAG M2 magnetic beads; western blot for endogenous VPS13C

Question: For “endogenous VPS13C (HEK293T cells) (from UniProt Q709C8 1-3753)”, which binding is on record?
Answer: The binding was “binds”.
